Results: publication doi:10.1101/2020.04.22.056051
Results are given in words; binding and its absence hold for the method and conditions named. In cells and extracts the contact can be indirect. Some entries that bind do so weakly or less than the wild type.

Amino acid sequences for entries named in this document (tags omitted).
UniProt Q9VCA8: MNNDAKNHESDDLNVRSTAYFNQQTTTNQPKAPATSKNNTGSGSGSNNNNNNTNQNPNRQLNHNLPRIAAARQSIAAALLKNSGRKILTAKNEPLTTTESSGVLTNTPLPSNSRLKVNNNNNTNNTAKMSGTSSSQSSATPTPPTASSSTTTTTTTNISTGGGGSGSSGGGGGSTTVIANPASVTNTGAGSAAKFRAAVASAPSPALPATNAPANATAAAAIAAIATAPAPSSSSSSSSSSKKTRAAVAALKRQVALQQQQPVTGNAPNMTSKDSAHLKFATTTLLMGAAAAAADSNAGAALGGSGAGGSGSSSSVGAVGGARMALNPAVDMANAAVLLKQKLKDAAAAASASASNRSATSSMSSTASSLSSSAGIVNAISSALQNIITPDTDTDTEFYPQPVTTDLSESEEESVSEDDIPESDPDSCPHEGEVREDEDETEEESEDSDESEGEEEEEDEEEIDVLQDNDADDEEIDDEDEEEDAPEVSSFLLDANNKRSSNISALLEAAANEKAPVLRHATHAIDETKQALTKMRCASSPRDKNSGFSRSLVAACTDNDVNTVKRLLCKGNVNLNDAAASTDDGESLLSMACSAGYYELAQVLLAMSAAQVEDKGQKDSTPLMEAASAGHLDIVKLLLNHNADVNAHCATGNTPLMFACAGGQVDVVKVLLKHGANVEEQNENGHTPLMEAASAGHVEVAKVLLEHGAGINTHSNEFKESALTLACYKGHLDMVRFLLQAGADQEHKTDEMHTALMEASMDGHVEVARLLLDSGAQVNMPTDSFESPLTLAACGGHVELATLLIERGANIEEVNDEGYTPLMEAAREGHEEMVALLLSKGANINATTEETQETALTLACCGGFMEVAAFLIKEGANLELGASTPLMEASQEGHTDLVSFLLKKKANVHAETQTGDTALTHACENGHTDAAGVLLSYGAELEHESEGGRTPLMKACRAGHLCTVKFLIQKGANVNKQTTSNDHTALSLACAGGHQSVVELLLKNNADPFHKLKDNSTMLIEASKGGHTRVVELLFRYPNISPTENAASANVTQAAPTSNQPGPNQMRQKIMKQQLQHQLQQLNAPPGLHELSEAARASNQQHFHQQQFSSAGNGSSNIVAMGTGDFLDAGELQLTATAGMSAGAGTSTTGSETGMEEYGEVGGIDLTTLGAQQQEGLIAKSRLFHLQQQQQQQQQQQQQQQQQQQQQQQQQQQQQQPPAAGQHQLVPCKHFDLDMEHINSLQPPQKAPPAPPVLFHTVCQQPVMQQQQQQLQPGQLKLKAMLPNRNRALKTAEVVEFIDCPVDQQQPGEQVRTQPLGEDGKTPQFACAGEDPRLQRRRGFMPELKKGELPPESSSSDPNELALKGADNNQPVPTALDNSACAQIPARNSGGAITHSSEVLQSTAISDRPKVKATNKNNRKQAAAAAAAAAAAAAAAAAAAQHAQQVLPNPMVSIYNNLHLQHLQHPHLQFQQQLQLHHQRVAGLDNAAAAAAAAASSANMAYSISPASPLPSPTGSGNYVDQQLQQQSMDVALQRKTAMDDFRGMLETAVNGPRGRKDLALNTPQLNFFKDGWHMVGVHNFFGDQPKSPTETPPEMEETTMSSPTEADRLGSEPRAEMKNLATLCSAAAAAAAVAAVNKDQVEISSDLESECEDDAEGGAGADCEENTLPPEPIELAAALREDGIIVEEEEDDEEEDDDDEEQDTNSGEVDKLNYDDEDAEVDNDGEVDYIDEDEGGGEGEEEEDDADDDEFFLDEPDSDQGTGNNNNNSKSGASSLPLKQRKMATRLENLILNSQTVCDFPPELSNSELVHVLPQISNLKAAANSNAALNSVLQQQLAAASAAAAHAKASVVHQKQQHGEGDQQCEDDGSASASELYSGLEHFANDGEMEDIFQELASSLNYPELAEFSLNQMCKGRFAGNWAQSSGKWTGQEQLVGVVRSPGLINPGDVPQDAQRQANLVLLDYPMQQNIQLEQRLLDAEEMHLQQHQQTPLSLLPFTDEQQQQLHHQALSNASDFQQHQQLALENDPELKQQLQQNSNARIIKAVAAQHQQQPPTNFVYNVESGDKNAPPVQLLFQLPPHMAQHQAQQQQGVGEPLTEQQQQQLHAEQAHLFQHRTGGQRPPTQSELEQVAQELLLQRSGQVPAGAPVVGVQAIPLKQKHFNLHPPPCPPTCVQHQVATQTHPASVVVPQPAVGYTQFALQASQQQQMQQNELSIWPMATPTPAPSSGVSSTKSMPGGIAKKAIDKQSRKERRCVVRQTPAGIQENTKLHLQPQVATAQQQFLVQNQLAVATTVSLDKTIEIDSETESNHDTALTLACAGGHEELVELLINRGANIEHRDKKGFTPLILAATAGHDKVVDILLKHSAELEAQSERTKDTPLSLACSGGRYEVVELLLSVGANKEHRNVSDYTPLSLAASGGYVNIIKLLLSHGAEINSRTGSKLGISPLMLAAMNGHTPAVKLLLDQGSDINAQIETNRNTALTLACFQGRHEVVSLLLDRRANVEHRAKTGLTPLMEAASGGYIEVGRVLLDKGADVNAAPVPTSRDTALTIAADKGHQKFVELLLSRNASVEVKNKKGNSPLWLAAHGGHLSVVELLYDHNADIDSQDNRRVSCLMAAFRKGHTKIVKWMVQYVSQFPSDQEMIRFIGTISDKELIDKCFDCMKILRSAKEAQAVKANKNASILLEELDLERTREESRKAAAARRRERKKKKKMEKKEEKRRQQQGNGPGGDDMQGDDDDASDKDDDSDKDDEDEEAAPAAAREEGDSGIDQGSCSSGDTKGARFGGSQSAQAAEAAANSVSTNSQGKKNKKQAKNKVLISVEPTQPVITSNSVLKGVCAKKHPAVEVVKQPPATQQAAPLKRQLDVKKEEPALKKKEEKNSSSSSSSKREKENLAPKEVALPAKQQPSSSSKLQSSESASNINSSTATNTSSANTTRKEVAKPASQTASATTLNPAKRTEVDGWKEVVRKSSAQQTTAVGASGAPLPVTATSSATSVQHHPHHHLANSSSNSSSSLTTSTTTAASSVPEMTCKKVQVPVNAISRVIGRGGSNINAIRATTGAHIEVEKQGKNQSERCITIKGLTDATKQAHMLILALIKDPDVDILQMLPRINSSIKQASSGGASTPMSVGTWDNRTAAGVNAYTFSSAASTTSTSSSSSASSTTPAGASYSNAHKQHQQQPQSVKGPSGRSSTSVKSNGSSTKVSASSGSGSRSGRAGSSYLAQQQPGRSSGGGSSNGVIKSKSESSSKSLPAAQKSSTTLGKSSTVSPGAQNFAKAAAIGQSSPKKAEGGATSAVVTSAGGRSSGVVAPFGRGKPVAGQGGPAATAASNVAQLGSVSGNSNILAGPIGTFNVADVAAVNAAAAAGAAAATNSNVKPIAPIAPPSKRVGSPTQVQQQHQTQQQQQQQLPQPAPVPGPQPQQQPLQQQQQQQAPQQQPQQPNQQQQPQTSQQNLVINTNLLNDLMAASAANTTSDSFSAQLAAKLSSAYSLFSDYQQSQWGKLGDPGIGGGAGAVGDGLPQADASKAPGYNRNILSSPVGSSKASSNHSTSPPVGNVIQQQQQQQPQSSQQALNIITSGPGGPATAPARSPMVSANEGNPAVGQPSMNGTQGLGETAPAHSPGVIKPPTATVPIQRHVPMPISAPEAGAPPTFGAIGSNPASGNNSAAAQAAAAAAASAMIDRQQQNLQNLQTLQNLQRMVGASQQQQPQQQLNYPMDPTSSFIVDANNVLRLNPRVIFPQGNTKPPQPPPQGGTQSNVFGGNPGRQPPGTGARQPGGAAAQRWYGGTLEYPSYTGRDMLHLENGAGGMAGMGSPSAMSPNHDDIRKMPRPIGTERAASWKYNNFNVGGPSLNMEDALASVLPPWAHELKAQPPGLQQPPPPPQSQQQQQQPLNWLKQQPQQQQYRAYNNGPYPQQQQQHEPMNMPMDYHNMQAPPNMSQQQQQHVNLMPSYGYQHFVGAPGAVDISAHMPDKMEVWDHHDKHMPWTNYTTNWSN

Molecular target: Mask (endogenous) (Drosophila (endogenous in larval brains)) (UniProt Q9VCA8)
Experiment: co-IP

B1: mCherry-Jupiter (protein, UniProt Q9I7K0 1-208)
chain: MAAYAAFKHVELYNVGKAKKRVLRPPGGGSSDIFGSEMPQTPRNVKNRMASNIFAAEKDNGVKNNVRQGAHRFYFIGDAPRRGQKTVDSHSRLFGEPTRPITPGKNHMKSSIPFGQNTEAVAAQKLLTTNGHYNGKSGSVSSASSSVSSSTENLKMNSGSRSEGNPVTGEGYKVVANEYSQRQESSNGGTPVINKNRIPPGGYSSGLW
  binding: binds
